Results are given in words; binding and its absence hold for the method and conditions named. In cells and extracts the contact can be indirect. Some binding calls cover weakened binding; strength is not graded here. Tags and fused reporters may be left off the sequences shown.

Amino acid sequences for entries named in this document (tags omitted). A change or cut given only in a name is not applied to a line headed by its entry.
UniProt Q9Y572: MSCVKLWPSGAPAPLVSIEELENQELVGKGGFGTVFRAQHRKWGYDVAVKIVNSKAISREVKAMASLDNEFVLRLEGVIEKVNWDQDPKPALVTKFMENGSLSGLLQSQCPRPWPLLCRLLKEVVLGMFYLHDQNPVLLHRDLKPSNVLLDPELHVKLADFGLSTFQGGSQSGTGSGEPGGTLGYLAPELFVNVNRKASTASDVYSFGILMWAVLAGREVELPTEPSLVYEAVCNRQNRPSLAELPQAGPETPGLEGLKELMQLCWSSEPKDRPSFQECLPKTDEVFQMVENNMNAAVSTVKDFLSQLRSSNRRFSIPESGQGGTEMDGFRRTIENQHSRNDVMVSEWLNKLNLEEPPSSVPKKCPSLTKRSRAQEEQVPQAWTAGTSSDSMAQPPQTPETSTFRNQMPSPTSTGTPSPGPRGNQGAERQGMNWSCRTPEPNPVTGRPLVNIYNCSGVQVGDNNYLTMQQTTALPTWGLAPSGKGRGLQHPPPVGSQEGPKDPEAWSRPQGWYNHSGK
UniProt Q96BN8: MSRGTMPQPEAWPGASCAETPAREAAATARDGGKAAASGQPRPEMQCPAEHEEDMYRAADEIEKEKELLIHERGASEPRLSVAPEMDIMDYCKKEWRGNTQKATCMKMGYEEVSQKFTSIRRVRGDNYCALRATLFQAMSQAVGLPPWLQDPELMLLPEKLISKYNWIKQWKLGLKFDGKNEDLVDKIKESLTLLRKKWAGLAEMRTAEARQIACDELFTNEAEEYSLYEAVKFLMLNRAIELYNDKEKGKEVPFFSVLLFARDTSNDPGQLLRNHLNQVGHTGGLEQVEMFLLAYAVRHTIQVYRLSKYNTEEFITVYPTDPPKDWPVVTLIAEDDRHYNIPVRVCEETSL
UniProt Q14790: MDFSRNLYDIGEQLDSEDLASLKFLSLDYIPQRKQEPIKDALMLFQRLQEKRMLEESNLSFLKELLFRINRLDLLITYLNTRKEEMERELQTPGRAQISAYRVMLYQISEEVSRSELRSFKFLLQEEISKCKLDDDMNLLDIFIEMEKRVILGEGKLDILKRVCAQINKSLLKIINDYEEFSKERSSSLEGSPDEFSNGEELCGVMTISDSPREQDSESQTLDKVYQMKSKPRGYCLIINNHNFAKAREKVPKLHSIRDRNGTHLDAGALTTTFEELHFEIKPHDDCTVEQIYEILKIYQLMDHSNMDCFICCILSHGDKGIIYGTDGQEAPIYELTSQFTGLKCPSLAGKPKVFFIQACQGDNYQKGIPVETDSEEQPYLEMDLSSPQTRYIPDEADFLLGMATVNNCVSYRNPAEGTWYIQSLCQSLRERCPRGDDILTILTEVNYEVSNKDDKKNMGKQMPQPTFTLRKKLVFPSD
UniProt Q96EP0: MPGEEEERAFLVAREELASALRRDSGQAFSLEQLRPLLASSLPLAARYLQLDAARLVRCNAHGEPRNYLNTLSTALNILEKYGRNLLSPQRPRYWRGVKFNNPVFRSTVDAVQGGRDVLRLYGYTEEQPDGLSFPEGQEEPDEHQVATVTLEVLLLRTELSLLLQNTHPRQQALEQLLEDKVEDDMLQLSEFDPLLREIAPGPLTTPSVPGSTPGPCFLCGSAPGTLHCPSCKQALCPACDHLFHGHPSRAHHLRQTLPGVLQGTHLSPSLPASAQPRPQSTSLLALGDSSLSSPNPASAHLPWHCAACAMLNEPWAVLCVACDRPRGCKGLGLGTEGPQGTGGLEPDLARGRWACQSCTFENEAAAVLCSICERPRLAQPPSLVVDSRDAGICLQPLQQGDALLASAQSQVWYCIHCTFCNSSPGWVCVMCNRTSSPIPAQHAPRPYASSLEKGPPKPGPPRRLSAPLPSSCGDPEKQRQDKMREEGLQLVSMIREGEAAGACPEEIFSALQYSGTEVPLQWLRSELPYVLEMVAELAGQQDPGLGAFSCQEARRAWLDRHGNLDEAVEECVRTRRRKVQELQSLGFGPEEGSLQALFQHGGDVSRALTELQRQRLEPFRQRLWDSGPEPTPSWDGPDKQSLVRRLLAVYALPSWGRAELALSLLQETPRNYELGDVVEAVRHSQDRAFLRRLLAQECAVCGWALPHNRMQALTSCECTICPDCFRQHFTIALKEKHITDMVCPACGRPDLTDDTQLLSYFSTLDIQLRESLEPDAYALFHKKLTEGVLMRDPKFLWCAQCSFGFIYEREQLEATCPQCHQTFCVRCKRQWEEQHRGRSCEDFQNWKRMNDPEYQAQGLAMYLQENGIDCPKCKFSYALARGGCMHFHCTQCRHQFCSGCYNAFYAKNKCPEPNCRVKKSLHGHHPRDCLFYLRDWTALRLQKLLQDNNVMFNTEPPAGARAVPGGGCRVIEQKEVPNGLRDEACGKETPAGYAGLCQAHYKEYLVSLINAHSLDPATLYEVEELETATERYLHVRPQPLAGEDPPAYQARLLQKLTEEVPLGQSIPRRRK

We go through eight molecules from PMC9724671.

The labels stand for the following.
B1: RIPK1, Q13546 1-671 (protein)
chain: MQPDMSLNVIKMKSSDFLESAELDSGGFGKVSLCFHRTQGLMIMKTVYKGPNCIEHNEALLEEAKMMNRLRHSRVVKLLGVIIEEGKYSLVMEYMEKGNLMHVLKAEMSTPLSVKGRIILEIIEGMCYLHGKGVIHKDLKPENILVDNDFHIKIADLGLASFKMWSKLNNEEHNELREVDGTAKKNGGTLYYMAPEHLNDVNAKPTEKSDVYSFAVVLWAIFANKEPYENAICEQQLIMCIKSGNRPDVDDITEYCPREIISLMKLCWEANPEARPTFPGIEEKFRPFYLSQLEESVEEDVKSLKKEYSNENAVVKRMQSLQLDCVAVPSSRSNSATEQPGSLHSSQGLGMGPVEESWFAPSLEHPQEENEPSLQSKLQDEANYHLYGSRMDRQTKQQPRQNVAYNREEERRRRVSHDPFAQQRPYENFQNTEGKGTAYSSAASHGNAVHQPSGLTSQPQVLYQNNGLYSSHGFGTRPLDPGTAGPRVWYRPIPSHMPSLHNIPVPETNYLGNTPTMPFSSLPPTDESIKYTIYNSTGIQIGAYNYMEIGGTSSSLLDSTNTNFKEEPAAKYQAIFDNTTSLTDKHLDPIRENLGKHWKNCARKLGFTQSQIDEIDHDYERDGLKEKVYQMLQKWVMREGIKGATVGKLAQALHQCSRIDLLSSLIYVSQN
B2: TAK1 (enzyme, UniProt O43318 1-606)
chain: MSTASAASSSSSSSAGEMIEAPSQVLNFEEIDYKEIEVEEVVGRGAFGVVCKAKWRAKDVAIKQIESESERKAFIVELRQLSRVNHPNIVKLYGACLNPVCLVMEYAEGGSLYNVLHGAEPLPYYTAAHAMSWCLQCSQGVAYLHSMQPKALIHRDLKPPNLLLVAGGTVLKICDFGTACDIQTHMTNNKGSAAWMAPEVFEGSNYSEKCDVFSWGIILWEVITRRKPFDEIGGPAFRIMWAVHNGTRPPLIKNLPKPIESLMTRCWSKDPSQRPSMEEIVKIMTHLMRYFPGADEPLQYPCQYSDEGQSNSATSTGSFMDIASTNTSNKSDTNMEQVPATNDTIKRLESKLLKNQAKQQSESGRLSLGASRGSSVESLPPTSEGKRMSADMSEIEARIAATTAYSKPKRGHRKTASFGNILDVPEIVISGNGQPRRRSIQDLTVTGTEPGQVSSRSSSPSVRMITTSGPTSEKPTRSHPWTPDDSTDTNGSDNSIPMAYLTLDHQLQPLAPCPNSKESMAVFEQHCKMAQEYMKVQTEIALLLQRKQELVAELDQDEKDQQNTSRLVQEHKKLLDENKSLSTYYQQCKKQLEVIRSQQQKRQGTS
B3: IKKβ (enzyme, UniProt O14920 1-756)
chain: MSWSPSLTTQTCGAWEMKERLGTGGFGNVIRWHNQETGEQIAIKQCRQELSPRNRERWCLEIQIMRRLTHPNVVAARDVPEGMQNLAPNDLPLLAMEYCQGGDLRKYLNQFENCCGLREGAILTLLSDIASALRYLHENRIIHRDLKPENIVLQQGEQRLIHKIIDLGYAKELDQGSLCTSFVGTLQYLAPELLEQQKYTVTVDYWSFGTLAFECITGFRPFLPNWQPVQWHSKVRQKSEVDIVVSEDLNGTVKFSSSLPYPNNLNSVLAERLEKWLQLMLMWHPRQRGTDPTYGPNGCFKALDDILNLKLVHILNMVTGTIHTYPVTEDESLQSLKARIQQDTGIPEEDQELLQEAGLALIPDKPATQCISDGKLNEGHTLDMDLVFLFDNSKITYETQISPRPQPESVSCILQEPKRNLAFFQLRKVWGQVWHSIQTLKEDCNRLQQGQRAAMMNLLRNNSCLSKMKNSMASMSQQLKAKLDFFKTSIQIDLEKYSEQTEFGITSDKLLLAWREMEQAVELCGRENEVKLLVERMMALQTDIVDLQRSPMGRKQGGTLDDLEEQARELYRRLREKPRDQRTEGDSQEMVRLLLQAIQSFEKKVRVIYTQLSKTVVCKQKALELLPKVEEVVSLMNEDEKTVVRLQEKRQKELWNLLKIACSKVRGPVSGSPDSMNASRLSQPGQLMSQPSTASNSLPEPAKKSEELVAEAHNLCTLLENAIQDTVREQDQSFTALDWSWLQTEEEEHSCLEQAS

One test addresses T1, FLAG‐tagged wild‐type (WT) human ZBP1 (Z‐DNA‐binding protein 1) (human), Q9H171.
T1 chain: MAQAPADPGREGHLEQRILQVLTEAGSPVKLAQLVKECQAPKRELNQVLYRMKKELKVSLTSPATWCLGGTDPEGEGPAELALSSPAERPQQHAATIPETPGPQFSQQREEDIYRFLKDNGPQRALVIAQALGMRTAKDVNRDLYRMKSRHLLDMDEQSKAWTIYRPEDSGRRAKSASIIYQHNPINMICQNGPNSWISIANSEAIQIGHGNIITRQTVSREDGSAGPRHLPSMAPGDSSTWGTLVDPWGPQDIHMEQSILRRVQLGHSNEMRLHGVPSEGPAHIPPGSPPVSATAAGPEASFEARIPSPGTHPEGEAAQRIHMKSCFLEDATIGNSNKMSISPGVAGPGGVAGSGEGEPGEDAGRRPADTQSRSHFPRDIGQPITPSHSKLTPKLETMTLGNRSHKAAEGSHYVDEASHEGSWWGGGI
The experiment in a line: co-IP; anti‐FLAG M2 agarose beads on lysates of HT29/TO‐ZBP1^WT cells (and HT29/RIPK1‐KO clone aA3/TO‐ZBP1^WT cells) treated with 500 ng/ml Dox for 16 h; TBSN buffer (50 mM Tris–HCl pH 7.5, 150 mM NaCl, 0.5% NP‐40) with protease and phosphatase inhibitors and 50 mM NEM, 4°C; co‐precipitated endogenous proteins detected by Western blot. Particulars: remark: other sources report otherwise. In general terms: In western blotting, separated proteins are transferred to a membrane and probed.
For the molecule B1, the binding result is listed as “binds”.

In another test the target is T2, FLAG‐tagged wild‐type (WT) human ZBP1 (Z‐DNA‐binding protein 1) (human) (UniProt Q9H171).
T2 sequence: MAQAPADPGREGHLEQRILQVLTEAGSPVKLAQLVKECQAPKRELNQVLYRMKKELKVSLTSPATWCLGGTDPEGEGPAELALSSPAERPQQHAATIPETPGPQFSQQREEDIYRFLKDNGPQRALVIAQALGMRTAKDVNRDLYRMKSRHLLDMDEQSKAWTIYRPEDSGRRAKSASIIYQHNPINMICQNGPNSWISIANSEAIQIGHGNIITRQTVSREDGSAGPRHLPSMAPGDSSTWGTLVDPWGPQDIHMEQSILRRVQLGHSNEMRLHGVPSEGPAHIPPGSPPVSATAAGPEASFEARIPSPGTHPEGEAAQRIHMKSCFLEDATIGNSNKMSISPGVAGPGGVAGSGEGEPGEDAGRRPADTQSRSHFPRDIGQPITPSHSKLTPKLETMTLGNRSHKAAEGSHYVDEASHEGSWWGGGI
The test is described as above.
Conditions: not given
Regarding RIPK3 (from UniProt Q9Y572 1-518), the binding entry is on record as “binds”.

Consider “phosphorylated RIPK3 (from UniProt Q9Y572 1-518)”, for which the binding result is recorded as “binds”.

For “OTULIN (from UniProt Q96BN8 1-352) (enzyme)”, the binding result is recorded as “binds”.

“full‐length caspase‐8 (from UniProt Q14790 1-479)”: the binding entry was “binds”.

Consider “LUBAC (HOIP, HOIL‐1, SHARPIN) (from UniProt Q96EP0 1-1072; Q9BYM8 1-510; Q9H0F6 1-387) (complex)”, for which the binding result is “binds”.

B2: the binding result is recorded as “binds”.

For B3, the binding result is recorded as “binds”.
